# Experimental data as given in publication PMC5996148.
# By UniProt entry, the sequences of proteins in these tests, tags left out. Where a name states a change or a piece, a line headed by the entry shows the natural chain unless it says otherwise.
# UniProt Q9HCP0: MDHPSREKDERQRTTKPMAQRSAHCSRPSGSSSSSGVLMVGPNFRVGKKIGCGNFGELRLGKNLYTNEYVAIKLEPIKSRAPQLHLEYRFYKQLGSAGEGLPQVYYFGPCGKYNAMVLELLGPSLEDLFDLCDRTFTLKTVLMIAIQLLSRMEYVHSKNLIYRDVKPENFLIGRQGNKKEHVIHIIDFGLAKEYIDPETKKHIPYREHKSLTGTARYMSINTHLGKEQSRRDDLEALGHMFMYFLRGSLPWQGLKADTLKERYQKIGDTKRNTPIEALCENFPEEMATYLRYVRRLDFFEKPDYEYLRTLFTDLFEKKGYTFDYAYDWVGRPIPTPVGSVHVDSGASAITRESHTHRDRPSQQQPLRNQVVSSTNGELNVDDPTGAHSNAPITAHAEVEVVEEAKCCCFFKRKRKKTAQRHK
# Values joined by “and” are separate entries in the source; they are usually repeats but may differ in a detail not shown here. Identical values can stand only once. Some of the results follow. For some assays here: The exact form of the protein is not confirmed.
# Columns and labels:
# Experiment in all cases: protein microarray (ProtoArray v5.0), streptavidin-Alexa Fluor 647
# Settings in all cases: 3'-biotin; 20 mM Tris (pH 7.5), 5 mM MgCl2, 100 mM KCl, 0.1% Tween-20, A/T-rich and random oligonucleotide blockers; temperature not stated; high values mean tight binding
# [1] = test system: COBRA1 (human)
# [2] = test system: COG8 (human)
# [3] = test system: COL4A3BP (human)
# [4] = test system: COMMD1 (human)
# [5] = test system: COMMD2 (human)
# [6] = test system: COPZ1 (human)
# [7] = test system: COX4I2 (human)
# [8] = test system: COX4NB (human)
# [9] = test system: COX5B (human)
# [10] = test system: CPLX1 (human)
# [11] = test system: CRABP2 (human)
# [12] = test system: CRADD (human)
# [13] = test system: CRLF3 (human)
# [14] = test system: CRYAA (human)
# [15] = test system: CRYBA1 (human)
# [16] = test system: CSF1 (human)
# [17] = target: CSNK1G1 (UniProt Q9HCP0)
# [18] = test system: CTBP1 (human)
# [19] = test system: CTNNB1 (human)
# [20] = test system: CTXN1 (human)
sequence,measurement,setting,value
GGTGACAGGGGTATGGGGAGGGG [G4-2 biotinylated (Ct1)],binding signal,[1],-0.383 z-score
same,binding signal,[2],-0.398 z-score
same,binding signal,[3],-0.382 z-score
same,binding signal,[4],-0.363 z-score
same,binding signal,[5],-0.367 z-score
same,binding signal,[6],-0.4 z-score
same,binding signal,[7],-0.395 z-score
same,binding signal,[8],-0.397 z-score
same,binding signal,[9],-0.39 z-score
same,binding signal,[10],-0.392 z-score
same,binding signal,[11],-0.368 z-score
same,binding signal,[12],-0.401 z-score
same,binding signal,[13],-0.389 z-score
same,binding signal,[14],-0.375 z-score
same,binding signal,[15],-0.368 z-score
same,binding signal,[16],-0.39 z-score
same,binding signal,[17],4.05 z-score
same,binding signal,[18],-0.385 z-score and -0.393 z-score
same,binding signal,[19],-0.396 z-score
same,binding signal,[20],-0.371 z-score
